Test results from US12194007B2, “Pharmaceutical composition for preventing or treating cancer, comprising gossypol, phenformin, and anticancer agent” (National Cancer Center, priority 2018, dated 2025).
At least one structure is not confirmed: it was looked up by name or label, or the drawing left a doubt.

Tested on: A375 cells xenograft tumor
Assay: Melanoma mouse model, tumor growth
Format: in vivo, Balb/c-nu mice
Details: gossypol 80 mg/kg, phenformin 100 mg/kg, vemurafenib 30 mg/kg; compared to the solvent control group (Table 26, FIG. 11A)

CCCS(=O)(=O)Nc1ccc(F)c(C(=O)c2c[nH]c3ncc(-c4ccc(Cl)cc4)cc23)c1F [vemurafenib]
tumor volume according to the number of days of breeding: tendency to slightly decrease the scale of increase in tumor volume
